Some of the results follow.

By UniProt entry, the sequences of proteins in these tests, tags left out.
UniProt Q0JBA9, entry or part of it: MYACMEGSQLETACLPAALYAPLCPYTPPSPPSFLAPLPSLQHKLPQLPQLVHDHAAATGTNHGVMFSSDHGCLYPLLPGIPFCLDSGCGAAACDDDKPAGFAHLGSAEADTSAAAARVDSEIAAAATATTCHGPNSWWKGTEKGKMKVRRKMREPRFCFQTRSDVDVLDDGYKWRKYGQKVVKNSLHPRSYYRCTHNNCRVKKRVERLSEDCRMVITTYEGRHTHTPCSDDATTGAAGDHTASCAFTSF

In this assay the target is OsWRKY34 (Oryza sativa, UniProt Q0JBA9 1-250). Kind of assay: protein-binding microarray (RPBM); PBS, 2% BSA, 51.3 ng/ul salmon testes DNA, 50 uM zinc acetate, 200 nM TF, 25 C, 1 h; high values mean tight binding. The conditions noted are these: protein: recombinant; tags: N-terminal polyhistidine and DsRed monomer fusion (pET32a); label: CyDye5-dUTP incorporated in the synthesized complementary strand; 3' TTTTT single-stranded linker to array surface; dsDNA, one strand shown. In outline:
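Using Ni–NTA, transcription factors fused N-terminally to polyhistidine and DsRed were purified after expression in E. coli BL21-CodonPlus. These were incubated at 200 nM with a blocked, double-stranded custom Agilent array for 1 h at 25 °C in a buffer containing 50 µM zinc acetate, and the array was washed. The binding signal is per-feature fluorescence intensity (arbitrary units) on an Axon 4000B scanner.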
As for “GGCCCAATATAGGCCTTGTTTGGGTGGGCATCAATCTAGACGGAGTCACCTAGTGCAG”, the binding signal is 8830 fluorescence intensity (a.u.). For “GCTCTCCGGAGTTTTGGAACCCTTGTAACACTCGACCATACGGAGTCACCTAGTGCAG”, the binding signal was 9400 fluorescence intensity (a.u.).

In the case of “CGAGCCCGTCCAGGGCCAGGTACTTTCACTCTCACCTCACCGGAGTCACCTAGTGCAG”, the binding signal is 8960 fluorescence intensity (a.u.). As to “TCCTCTCCTTCACTCGTACTGTTTCTGATATCATTGATTGCGGAGTCACCTAGTGCAG”, the binding signal is 8590 fluorescence intensity (a.u.). Consider “GGGCCAAAATTTTTATTCCTAATTTTTTTTTTTCGTTTTGCGGAGTCACCTAGTGCAG”, for which the binding signal is 8420 fluorescence intensity (a.u.). Consider “AACCTTGCATCTCAGCCCATTTCGACATATCCCCAATTCCCGGAGTCACCTAGTGCAG”, for which the binding signal was 9310 fluorescence intensity (a.u.).

Regarding “TACTATTATCTCTTTTGTATTACAAACATTCGAGTATAGTCGGAGTCACCTAGTGCAG”, the binding signal was 8180 fluorescence intensity (a.u.). The figure for “GTTCCTGATATGTTTTTTTGTTGGTTGCAGGATGGCAAGACGGAGTCACCTAGTGCAG” is 8880 fluorescence intensity (a.u.); for “AGGGAGTATATGTGATGGACACAAAAGTTACTTTCATGATCGGAGTCACCTAGTGCAG” it is 8190 fluorescence intensity (a.u.). Turning to “GATAACCTATTGAGTGACATTTTATCCTTTGCACTTTAATCGGAGTCACCTAGTGCAG”, the binding signal was 11200 fluorescence intensity (a.u.). “AACACAGCCTTATAACCTCAAGAAGCTTTCACGTTAATCCCGGAGTCACCTAGTGCAG”: the binding signal is 8690 fluorescence intensity (a.u.). Turning to “CTCCTCCACTTTTCTTCGCTTCCTCACTACCACCTTCTCGCGGAGTCACCTAGTGCAG”, the binding signal is 10300 fluorescence intensity (a.u.).

Take “TTTTCATGTGTTCGCATCACCGCTCTTGAGTCTTGACTTTCGGAGTCACCTAGTGCAG”: the binding signal was 12200 fluorescence intensity (a.u.). For “ACAAGTGTTATCCTGAACCATACCTCGTGTCAGTCTGTCCCGGAGTCACCTAGTGCAG”, the binding signal is 9970 fluorescence intensity (a.u.). The figure for “TCAATTCCATTTCCATCCTACTCCATCATCAGTGTCAGGTCGGAGTCACCTAGTGCAG” is 9320 fluorescence intensity (a.u.); for “CCATTACGCCGCGGTCGTTTCCTCTTCTCTTGCGTCCCATCGGAGTCACCTAGTGCAG” it is 10900 fluorescence intensity (a.u.).

“ACCTTTCTCACTACACGCCATTCCGCTCGCGTCCAATTGTCGGAGTCACCTAGTGCAG”: the binding signal is 10100 fluorescence intensity (a.u.). The figure for “GGTTTTGCGGTTCGAGCACGGTTTTGTATCCCGATGATAACGGAGTCACCTAGTGCAG” is 11100 fluorescence intensity (a.u.); for “AACAATCAGGACAATCGTGTTTCAACTGCTGAGTTTCTTACGGAGTCACCTAGTGCAG” it is 8390 fluorescence intensity (a.u.); for “GCCCACCACCACCTGTGTCCTCTTCCTCTCCTCTCCTTGCCGGAGTCACCTAGTGCAG” it is 9460 fluorescence intensity (a.u.). For the sequence “ATTTCTCACCGGCCGTTGACCTTCTTCTTGTGATGCTTATCGGAGTCACCTAGTGCAG”, the binding signal is 13800 fluorescence intensity (a.u.). The figure for “CCACTCTTCTTGCACTTCTCAATCCAATTCCATCTCGATCCGGAGTCACCTAGTGCAG” is 9980 fluorescence intensity (a.u.); for “TTTTGGTTACACCCACTACCCAAAAGCACAAGCAGCTTACCGGAGTCACCTAGTGCAG” it is 8500 fluorescence intensity (a.u.). With “TCCCTACCTACCCACCATCTGCAGCAACCACAGGGCCAATCGGAGTCACCTAGTGCAG” the figure was 8230 fluorescence intensity (a.u.); with “GATATGCATTTTCCCTGCTTTCCCTGCTTTTCCCCTTTTTCGGAGTCACCTAGTGCAG”, 16400 fluorescence intensity (a.u.); with “AACTATATCACGAGTTTTATCTTCTGTGAAAATATCTTTCCGGAGTCACCTAGTGCAG”, 8410 fluorescence intensity (a.u.). Take “ATCAAATATATCAAACCCCTTGTCAACCACTCGGTTATGTCGGAGTCACCTAGTGCAG”: the binding signal was 8200 fluorescence intensity (a.u.).

In the case of “GAGGGAATATTAGGTTTTGTTTGGAATATTATATTTTATACGGAGTCACCTAGTGCAG”, the binding signal is 8810 fluorescence intensity (a.u.).

Consider “TATTTCCCATACAGTCAGTATCCACTCTATGTTCCACCACCGGAGTCACCTAGTGCAG”, for which the binding signal is 9590 fluorescence intensity (a.u.). In the case of “GTACCCACACAGCGTCCCACCTCGCCGCCGGAGCCAATGACGGAGTCACCTAGTGCAG”, the binding signal is 8440 fluorescence intensity (a.u.). As for “ACGCCACCGCCATTCCACCTCTCGCTTCGCTTCTTCTCCTCGGAGTCACCTAGTGCAG”, the binding signal was 9420 fluorescence intensity (a.u.). On to “CGACACGGTCTCCAAAACACAACTTTGACTTCTTGTTTCTCGGAGTCACCTAGTGCAG”, for which the binding signal was 10600 fluorescence intensity (a.u.).

Regarding “CCGCCTCCTTTGACCCTACCAAAATTTACCGTTGACCATGCGGAGTCACCTAGTGCAG”, the binding signal was 20000 fluorescence intensity (a.u.). As to “ATGAATAAGCCCTAACAATGTAACCTTGTTTTTTTTCTGTCGGAGTCACCTAGTGCAG”, the binding signal is 8060 fluorescence intensity (a.u.). Take “CTGCCTACTGCTGCCCGGACGTCCCTGCACTGCGTCTCCGCGGAGTCACCTAGTGCAG”: the binding signal was 9200 fluorescence intensity (a.u.). With “TCGCCATCGATCGATCGTCTCAACCTCAACCACATTATTGCGGAGTCACCTAGTGCAG” the figure was 8550 fluorescence intensity (a.u.); with “TCTTTTTTTTGAACTATTTTATTTTTGTGTGTTACGTTGTCGGAGTCACCTAGTGCAG”, 8840 fluorescence intensity (a.u.).

For the sequence “GTTTCCGCGCTTTCCCCTGCTAGCCTCCGCGTGATAGATGCGGAGTCACCTAGTGCAG”, the binding signal is 8760 fluorescence intensity (a.u.). Consider “CGGGTCGTCTACGCCGCCGGCCGCTTCCTCACCTTCCACGCGGAGTCACCTAGTGCAG”, for which the binding signal was 8170 fluorescence intensity (a.u.). The figure for “TATGGCCATCTATACCTCTACTACACCTGCACACCAACCACGGAGTCACCTAGTGCAG” is 8040 fluorescence intensity (a.u.); for “ATTATTTTGGTTATTGTGTTGAACAATTGTGAATTTCTGTCGGAGTCACCTAGTGCAG” it is 9310 fluorescence intensity (a.u.); for “CAAACCTGTGTACTTTCTACGTGTTTTTTCTATGTTTCCGCGGAGTCACCTAGTGCAG” it is 12100 fluorescence intensity (a.u.).

The values above are taken from PMC7819943, “Rice protein-binding microarrays: a tool to detect cis-acting elements near promoter regions in rice”.
